# The other results are listed elsewhere or left out.
# B1: PX9961K-bvu-480-28-480 (Bacteroides vulgatus) (protein)
# chain: NKIPTTMAFRTVTDVDNAVNGLYDLMSGSGYYGAAMFAYGDMKGDDMQSSEESGVCNTCYMFNHRPNSLNAGSLWGRPFYILREAWNILNAIAEGKIESGDEKKLNALKGETMAVIALCQFDLTRCFGYPYTKDKGASLGAPLIDHLVGTYENPPRSTVAQAYDFIIETLEEAVTLMSEEKNNGRMNKYAARALLARIYLYHDDNRKAFDLADQLIKDADTSGSYALYPHEKYVAAWSVEAKFGSESFFEIANSVDDTPGRDSWGYLLNWYGYQKGFVTQKYAEQMLADPGDVRGHLLEENKYAGKTVWWLYKLRGTDLKTAPLECNNVVLRLSEVYLIAAEAGCKLGGDAAVQGLGYLNEIVKRGNPDNEVTMADYTLDRVLDERSKELVGEGHRFFDLLRNGKTIVRKGGYHLPSVDEEVDWDFYKCVLPIPEDQFIFSPEMEQNPGYPKN
# Experiments:
# Test in all cases: glycan array binding signal (z-score within array); higher = stronger binding
# Conditions in all cases: glycan notation: IUPAC condensed, linker removed
# Glc(b1-6)Glc = target: Glc(b1-6)Glc
# Outline: (§1)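 Negative Z-scores can be read as non-binding. The Z-score is calculated within each array and then averaged across arrays of one protein sequence at different concentrations or buffers and across linkers. Arrays, 3228 in all, were curated from the Consortium for Functional Glycomics database and kept only where the protein sequence was available.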
# GlcA(b1-3)Gal = target: GlcA(b1-3)Gal
# Outline: as §1
# GlcA(b1-3)GlcNAc = target: GlcA(b1-3)GlcNAc
# Outline: as §1
# GlcA(b1-6)Gal = target: GlcA(b1-6)Gal
# Outline: as §1
# [1] = target: GlcA3S(b1-3)Gal(b1-4)GlcNAc(b1-2)Man
# Outline: as §1
# [2] = target: GlcA3S(b1-3)Gal(b1-4)GlcNAc(b1-3)Gal(b1-4)Glc
# Outline: as §1
# [3] = target: GlcNAc(a1-3)Gal(b1-4)GlcNAc
# Outline: as §1
# [4] = target: GlcNAc(a1-4)Gal(b1-3)GlcNAc
# Outline: as §1
# [5] = target: GlcNAc(a1-4)Gal(b1-4)GalNAc
# Outline: as §1
# [6] = target: GlcNAc(a1-4)Gal(b1-4)GlcNAc
# Outline: as §1
# [7] = target: GlcNAc(a1-4)Gal(b1-4)GlcNAc(b1-3)Gal(b1-4)Glc
# Outline: as §1
# [8] = target: GlcNAc(a1-4)Gal(b1-4)GlcNAc(b1-3)Gal(b1-4)GlcNAc
# Outline: as §1
# [9] = target: GlcNAc(a1-4)Gal(b1-4)GlcNAc(b1-3)Gal(b1-4)GlcNAc(b1-3)Gal(b1-4)GlcNAc
# Outline: as §1
# [10] = target: GlcNAc(a1-4)Gal(b1-4)GlcNAc(b1-3)Gal(b1-4)[Fuc(a1-3)]GlcNAc(b1-3)Gal(b1-4)[Fuc(a1-3)]GlcNAc
# Outline: as §1
# [11] = target: GlcNAc(a1-6)Gal(b1-4)GlcNAc
# Outline: as §1
# [12] = target: GlcNAc(b1-2)Gal(b1-3)GalNAc
# Outline: as §1
# [13] = target: GlcNAc(b1-2)Man(a1-3)[GlcNAc(b1-2)Man(a1-6)]Man(b1-4)GlcNAc(b1-4)GlcNAc
# Outline: as §1
# [14] = target: GlcNAc(b1-2)Man(a1-3)[GlcNAc(b1-2)Man(a1-6)]Man(b1-4)GlcNAc(b1-4)[Fuc(a1-6)]GlcNAc
# Outline: as §1
# [15] = target: GlcNAc(b1-2)Man(a1-3)[GlcNAc(b1-4)][GlcNAc(b1-2)Man(a1-6)]Man(b1-4)GlcNAc(b1-4)GlcNAc
# Outline: as §1
# [16] = target: GlcNAc(b1-2)Man(a1-3)[GlcNAc(b1-4)][GlcNAc(b1-2)Man(a1-6)]Man(b1-4)GlcNAc(b1-4)[Fuc(a1-6)]GlcNAc
# Outline: as §1
# [17] = target: GlcNAc(b1-2)[GlcNAc(b1-4)]Man(a1-3)[GlcNAc(b1-2)Man(a1-6)]Man(b1-4)GlcNAc(b1-4)GlcNAc
# Outline: as §1
# [18] = target: GlcNAc(b1-2)[GlcNAc(b1-4)]Man(a1-3)[GlcNAc(b1-4)][GlcNAc(b1-2)Man(a1-6)]Man(b1-4)GlcNAc(b1-4)GlcNAc
# Outline: as §1
# [19] = target: GlcNAc(b1-2)[GlcNAc(b1-4)]Man(a1-3)[GlcNAc(b1-4)][GlcNAc(b1-2)[GlcNAc(b1-6)]Man(a1-6)]Man(b1-4)GlcNAc(b1-4)GlcNAc
# Outline: as §1
# [20] = target: GlcNAc(b1-2)[GlcNAc(b1-4)]Man(a1-3)[GlcNAc(b1-4)][GlcNAc(b1-2)[GlcNAc(b1-6)]Man(a1-6)]Man(b1-4)GlcNAc(b1-4)[Fuc(a1-6)]GlcNAc
# Outline: as §1
# [21] = target: GlcNAc(b1-2)[GlcNAc(b1-6)]Man(a1-6)[GlcNAc(b1-2)Man(a1-3)]Man(b1-4)GlcNAc(b1-4)GlcNAc
# Outline: as §1
# [22] = target: GlcNAc(b1-2)[GlcNAc(b1-6)]Man(a1-6)[GlcNAc(b1-2)Man(a1-3)]Man(b1-4)GlcNAc(b1-4)[Fuc(a1-6)]GlcNAc
# Outline: as §1
# [23] = target: GlcNAc(b1-2)[GlcNAc(b1-6)]Man(a1-6)[GlcNAc(b1-4)][GlcNAc(b1-2)Man(a1-3)]Man(b1-4)GlcNAc(b1-4)GlcNAc
# Outline: as §1
# GlcNAc(b1-3)Fuc = target: GlcNAc(b1-3)Fuc
# Outline: as §1
# GlcNAc(b1-3)Gal = target: GlcNAc(b1-3)Gal
# Outline: as §1
# [24] = target: GlcNAc(b1-3)Gal(b1-3)GalNAc
# Outline: as §1
# GlcNAc(b1-3)Gal(b1-4)Glc = target: GlcNAc(b1-3)Gal(b1-4)Glc
# Outline: as §1
# [25] = target: GlcNAc(b1-3)Gal(b1-4)GlcNAc
# Outline: as §1
# [26] = target: GlcNAc(b1-3)Gal(b1-4)GlcNAc(b1-2)Man(a1-3)[GlcNAc(b1-3)Gal(b1-4)GlcNAc(b1-2)Man(a1-6)]Man(b1-4)GlcNAc(b1-4)GlcNAc
# Outline: as §1
# [27] = target: GlcNAc(b1-3)Gal(b1-4)GlcNAc(b1-2)Man(a1-3)[GlcNAc(b1-3)Gal(b1-4)GlcNAc(b1-2)Man(a1-6)]Man(b1-4)GlcNAc(b1-4)[Fuc(a1-6)]GlcNAc
# Outline: as §1
# [28] = target: GlcNAc(b1-3)Gal(b1-4)GlcNAc(b1-2)[GlcNAc(b1-3)Gal(b1-4)GlcNAc(b1-6)]Man(a1-6)[GlcNAc(b1-3)Gal(b1-4)GlcNAc(b1-2)Man(a1-3)]Man(b1-4)GlcNAc(b1-4)GlcNAc
# Outline: as §1
# [29] = target: GlcNAc(b1-3)Gal(b1-4)GlcNAc(b1-3)Gal(b1-4)GlcNAc
# Outline: as §1
# [30] = target: GlcNAc(b1-3)Gal(b1-4)GlcNAc(b1-3)Gal(b1-4)GlcNAc(b1-2)Man(a1-3)[GlcNAc(b1-3)Gal(b1-4)GlcNAc(b1-3)Gal(b1-4)GlcNAc(b1-2)Man(a1-6)]Man(b1-4)GlcNAc(b1-4)GlcNAc
# Outline: as §1
# [31] = target: GlcNAc(b1-3)Gal(b1-4)GlcNAc(b1-3)Gal(b1-4)GlcNAc(b1-2)Man(a1-3)[GlcNAc(b1-3)Gal(b1-4)GlcNAc(b1-3)Gal(b1-4)GlcNAc(b1-2)Man(a1-6)]Man(b1-4)GlcNAc(b1-4)[Fuc(a1-6)]GlcNAc
# Outline: as §1
# [32] = target: GlcNAc(b1-3)Gal(b1-4)GlcNAc(b1-3)Gal(b1-4)GlcNAc(b1-2)[GlcNAc(b1-3)Gal(b1-4)GlcNAc(b1-3)Gal(b1-4)GlcNAc(b1-6)]Man(a1-6)[GlcNAc(b1-3)Gal(b1-4)GlcNAc(b1-3)Gal(b1-4)GlcNAc(b1-2)Man(a1-3)]Man(b1-4)GlcNAc(b1-4)[Fuc(a1-6)]GlcNAc
# Outline: as §1
# [33] = target: GlcNAc(b1-3)Gal(b1-4)GlcNAc(b1-3)Gal(b1-4)GlcNAc(b1-3)Gal(b1-4)GlcNAc(b1-2)Man(a1-3)[GlcNAc(b1-3)Gal(b1-4)GlcNAc(b1-3)Gal(b1-4)GlcNAc(b1-3)Gal(b1-4)GlcNAc(b1-2)Man(a1-6)]Man(b1-4)GlcNAc(b1-4)GlcNAc
# Outline: as §1
# [34] = target: GlcNAc(b1-3)Gal(b1-4)GlcNAc(b1-3)Gal(b1-4)GlcNAc(b1-3)Gal(b1-4)GlcNAc(b1-2)Man(a1-3)[GlcNAc(b1-3)Gal(b1-4)GlcNAc(b1-3)Gal(b1-4)GlcNAc(b1-3)Gal(b1-4)GlcNAc(b1-2)Man(a1-6)]Man(b1-4)GlcNAc(b1-4)[Fuc(a1-6)]GlcNAc
# Outline: as §1
# [35] = target: GlcNAc(b1-3)Gal(b1-4)GlcNAc(b1-3)Gal(b1-4)GlcNAc(b1-3)Gal(b1-4)GlcNAc(b1-2)[GlcNAc(b1-3)Gal(b1-4)GlcNAc(b1-3)Gal(b1-4)GlcNAc(b1-3)Gal(b1-4)GlcNAc(b1-6)]Man(a1-6)[GlcNAc(b1-3)Gal(b1-4)GlcNAc(b1-3)Gal(b1-4)GlcNAc(b1-3)Gal(b1-4)GlcNAc(b1-2)Man(a1-3)]Man(b1-4)GlcNAc(b1-4)[Fuc(a1-6)]GlcNAc
# Outline: as §1
# [36] = target: GlcNAc(b1-3)Gal(b1-4)GlcNAc(b1-3)Gal(b1-4)GlcNAc(b1-3)Gal(b1-4)GlcNAc(b1-3)Gal(b1-4)GlcNAc(b1-2)Man(a1-3)[GlcNAc(b1-3)Gal(b1-4)GlcNAc(b1-3)Gal(b1-4)GlcNAc(b1-3)Gal(b1-4)GlcNAc(b1-3)Gal(b1-4)GlcNAc(b1-2)Man(a1-6)]Man(b1-4)GlcNAc(b1-4)GlcNAc
# Outline: as §1
# [37] = target: GlcNAc(b1-3)Gal(b1-4)GlcNAc(b1-3)Gal(b1-4)GlcNAc(b1-3)Gal(b1-4)GlcNAc(b1-3)Gal(b1-4)GlcNAc(b1-2)Man(a1-3)[GlcNAc(b1-3)Gal(b1-4)GlcNAc(b1-3)Gal(b1-4)GlcNAc(b1-3)Gal(b1-4)GlcNAc(b1-3)Gal(b1-4)GlcNAc(b1-2)Man(a1-6)]Man(b1-4)GlcNAc(b1-4)[Fuc(a1-6)]GlcNAc
# Outline: as §1
# [38] = target: GlcNAc(b1-3)Gal(b1-4)GlcNAc(b1-3)Gal(b1-4)GlcNAc(b1-3)Gal(b1-4)GlcNAc(b1-3)Gal(b1-4)GlcNAc(b1-2)[GlcNAc(b1-3)Gal(b1-4)GlcNAc(b1-3)Gal(b1-4)GlcNAc(b1-3)Gal(b1-4)GlcNAc(b1-3)Gal(b1-4)GlcNAc(b1-6)]Man(a1-6)[GlcNAc(b1-3)Gal(b1-4)GlcNAc(b1-3)Gal(b1-4)GlcNAc(b1-3)Gal(b1-4)GlcNAc(b1-3)Gal(b1-4)GlcNAc(b1-2)Man(a1-3)]Man(b1-4)GlcNAc(b1-4)[Fuc(a1-6)]GlcNAc
# Outline: as §1
binder,measurement,setting,value
B1,glycan array binding signal (z-score),Glc(b1-6)Glc,0.029
same,glycan array binding signal (z-score),GlcA(b1-3)Gal,-0.115
same,glycan array binding signal (z-score),GlcA(b1-3)GlcNAc,0.396
same,glycan array binding signal (z-score),GlcA(b1-6)Gal,0.055
same,glycan array binding signal (z-score),[1],0.105
same,glycan array binding signal (z-score),[2],-0.255
same,glycan array binding signal (z-score),[3],0.21
same,glycan array binding signal (z-score),[4],-1.15
same,glycan array binding signal (z-score),[5],0.018
same,glycan array binding signal (z-score),[6],-0.571
same,glycan array binding signal (z-score),[7],-0.35
same,glycan array binding signal (z-score),[8],-0.127
same,glycan array binding signal (z-score),[9],-0.73
same,glycan array binding signal (z-score),[10],-0.338
same,glycan array binding signal (z-score),[11],-0.068
same,glycan array binding signal (z-score),[12],0.374
same,glycan array binding signal (z-score),[13],-0.374
same,glycan array binding signal (z-score),[14],0.198
same,glycan array binding signal (z-score),[15],0.528
same,glycan array binding signal (z-score),[16],0.291
same,glycan array binding signal (z-score),[17],-0.008
same,glycan array binding signal (z-score),[18],-0.024
same,glycan array binding signal (z-score),[19],0.193
same,glycan array binding signal (z-score),[20],-0.091
same,glycan array binding signal (z-score),[21],0.456
same,glycan array binding signal (z-score),[22],0.616
same,glycan array binding signal (z-score),[23],-0.028
same,glycan array binding signal (z-score),GlcNAc(b1-3)Fuc,1.16
same,glycan array binding signal (z-score),GlcNAc(b1-3)Gal,-0.681
same,glycan array binding signal (z-score),[24],0.801
same,glycan array binding signal (z-score),GlcNAc(b1-3)Gal(b1-4)Glc,-0.284
same,glycan array binding signal (z-score),[25],-0.48
same,glycan array binding signal (z-score),[26],0.679
same,glycan array binding signal (z-score),[27],-0.266
same,glycan array binding signal (z-score),[28],0.824
same,glycan array binding signal (z-score),[29],0.002
same,glycan array binding signal (z-score),[30],0.811
same,glycan array binding signal (z-score),[31],1.89
same,glycan array binding signal (z-score),[32],0.766
same,glycan array binding signal (z-score),[33],0.08
same,glycan array binding signal (z-score),[34],1.18
same,glycan array binding signal (z-score),[35],0.665
same,glycan array binding signal (z-score),[36],0.69
same,glycan array binding signal (z-score),[37],0.909
same,glycan array binding signal (z-score),[38],0.471

# Two records drawn at random from those above:
binder,measurement,setting,value
B1,glycan array binding signal (z-score),[1],0.105
same,glycan array binding signal (z-score),[19],0.193

# From the supplement of paper PMC8728848
